From ChEMBL document CHEMBL3988442, “University of Dundee, Small-Polar-MMV Screening Library” (2021).

Sequences of proteins named here, by UniProt entry; tags and fusion partners are left off.
UniProt E9BF75, entry or part of it: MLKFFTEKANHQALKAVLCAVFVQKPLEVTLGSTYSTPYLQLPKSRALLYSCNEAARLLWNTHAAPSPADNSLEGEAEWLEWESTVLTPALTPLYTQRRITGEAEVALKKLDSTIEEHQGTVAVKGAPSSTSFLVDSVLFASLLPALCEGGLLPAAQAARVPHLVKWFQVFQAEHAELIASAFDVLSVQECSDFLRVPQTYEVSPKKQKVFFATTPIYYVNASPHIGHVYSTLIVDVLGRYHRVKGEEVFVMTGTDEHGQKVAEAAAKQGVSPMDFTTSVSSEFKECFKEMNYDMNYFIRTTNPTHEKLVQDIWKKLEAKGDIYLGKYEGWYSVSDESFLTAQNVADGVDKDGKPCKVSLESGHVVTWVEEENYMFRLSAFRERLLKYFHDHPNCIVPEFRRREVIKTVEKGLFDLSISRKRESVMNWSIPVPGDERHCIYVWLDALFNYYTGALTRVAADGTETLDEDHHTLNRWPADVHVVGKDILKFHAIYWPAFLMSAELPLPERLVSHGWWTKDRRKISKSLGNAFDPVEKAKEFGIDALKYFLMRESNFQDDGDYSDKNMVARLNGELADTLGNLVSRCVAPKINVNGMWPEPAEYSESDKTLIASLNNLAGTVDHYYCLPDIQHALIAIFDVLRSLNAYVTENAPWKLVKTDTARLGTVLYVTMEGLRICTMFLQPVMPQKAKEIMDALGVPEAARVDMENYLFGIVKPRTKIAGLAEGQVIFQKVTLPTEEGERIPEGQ

LdMetRS: 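Primary screen of methionyl-tRNA synthetase; the read-out is not stated. Target: Methionyl-tRNA synthetase (putative), Leishmania donovani (UniProt E9BF75). The test concentration is not given. The values are filed as inhibition. Of about 68,000 compounds tested this way, about 24 (0.035%) reached 50% or more in at least one test.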
Mtb heat-shock: 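Assay on Mycobacterium tuberculosis, filed only as a heat shock assay from Cornell; the read-out is not stated. The concentration is filed as 10 mM, unlikely as a test dose, so the dose is not known. The record gives no direction; compounds that gave an IC50 in retests scored well above the rest, so higher reads as stronger inhibition. Of about 69,000 compounds tested this way, about 930 (1.4%) reached 50% or more in at least one test.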

All values are in %.
The record does not define 0% and 100%; most values in the screen are far below 50% and negative numbers occur (in some assays of this library far below -100).
The compounds are a random part of those screened.

Result for COCCNc1ccccc1CNC(=O)C1CCCOC1 (configuration not stated) was LdMetRS: 19.35%; Mtb heat-shock: 8.839%. O=C1CCC2(CCCN(C(=O)c3ncc[nH]3)C2)CN1CCc1c[nH]cn1 (configuration not stated) gave LdMetRS: 9.14%; Mtb heat-shock: 3.842%. For CNC(=O)[C@@]12CCC3(CCN(C(=O)C(C)C)CC3)[C@@H]1CN(S(C)(=O)=O)C2 the result was LdMetRS: 15.74%. Result for CC(NC(=O)NCCCc1n[nH]c(N)c1C#N)c1ccc(Cl)cc1 (configuration not stated) was LdMetRS: 28.45%; Mtb heat-shock: -10.85%.

Result for CCNc1ncc(C(=O)N2CCc3c(nc(C)nc3N(C)C)C2)cn1 was LdMetRS: 14.11%; Mtb heat-shock: -0.4276%. O=C(CCN1CCc2cncnc2C1)N1CCc2sccc2C1 read LdMetRS: 12.37%; Mtb heat-shock: -15.54%. Cc1cc(C)n(CC(=O)NC(Cc2ccsc2)c2ccccn2)c(=O)n1.Cl (configuration not stated) gave Mtb heat-shock: 93.95%. Result for CC(C)CCN1Cc2c(C(=O)O)ncn2-c2ccccc2S1(=O)=O was LdMetRS: 6.397%; Mtb heat-shock: -2.108%.

With O=S1(=O)CCC(c2nnc(-c3cnc4onc(C5CC5)c4c3)o2)C1 (configuration not stated) the screen gave LdMetRS: 8.871%; Mtb heat-shock: -26%. Result for OC(CN1CCCc2ccc(F)cc21)Cn1cccn1 (configuration not stated) was LdMetRS: 8.493%; Mtb heat-shock: -59.63%. O=C(O)C(F)(F)F.[H][C@@]12CCN(c3cccc(F)c3)C[C@@]1([H])O[C@@H](C(=O)NCc1ccco1)C2 gave Mtb heat-shock: 2.093%. Cc1nc(C(=O)N(C)CC(=O)N(C)C)nn1-c1ccccc1C(C)C gave LdMetRS: -27.62%; Mtb heat-shock: -6.824%.

For CN(C)C(=O)Cc1ccc(NC(=O)NC2CCCC2)cc1 the result was LdMetRS: 10.44%; Mtb heat-shock: 17.28%. CCOC(=O)N(C)C1CCN(Cc2ccsc2)CC1 gave LdMetRS: 7.652%; Mtb heat-shock: -0.6792%. With [H][C@@]12CS(=O)(=O)C[C@]1([H])N(C(=O)C1CC1)CCN2Cc1[nH]cnc1C the screen gave Mtb heat-shock: -29.65%. Result for Cc1ccc(N2CC[C@H]3O[C@@H](C(=O)N4CCCCO4)CC[C@H]32)nn1 was LdMetRS: 9.29%.

O=C(c1cccc(F)c1)N1CCc2ncc(Cn3cccn3)n2CC1 gave LdMetRS: 13.42%; Mtb heat-shock: -27.96%. With CN(CC(=O)N1CCCC1Cn1cccn1)Cc1ccccc1 (configuration not stated) the screen gave LdMetRS: 15.49%; Mtb heat-shock: -7.867%. For Cc1noc(C)c1-c1cc(CCC2CN(C(=O)C(C)C)CCO2)ncn1 (configuration not stated) the result was LdMetRS: 9.062%; Mtb heat-shock: 10.07%. For CN(Cc1cccc(Cl)c1)C(=O)Cn1nc(-c2ccc(F)cc2)oc1=O the result was LdMetRS: 5.476%; Mtb heat-shock: -3.664%.

With NC(=O)C1CN(c2ccc(Br)cn2)CCO1 (configuration not stated) the screen gave LdMetRS: 13.77%; Mtb heat-shock: -0.4609%. Cc1nc2n(n1)CC(Nc1ccnc(-c3ccccc3)n1)CC2 (configuration not stated) read LdMetRS: 20.44%; Mtb heat-shock: -0.9892%. COc1cc(N2CCC3(CCCN(C(=O)c4cccnc4)C3)C2)ncn1 (configuration not stated) read LdMetRS: 8.904%. For CNC(=O)CCNC(=O)CCc1c(C)nc2cc(O)nn2c1C the result was LdMetRS: 6.553%; Mtb heat-shock: -9.866%.

Result for CC(C)CC(=O)N1CC[C@H]2C[C@H](c3nccs3)O[C@@H]2C1 was LdMetRS: 19.88%.

The last 2 entries again:

{"structure": "CNC(=O)CCNC(=O)CCc1c(C)nc2cc(O)nn2c1C", "LdMetRS": 6.553, "Mtb heat-shock": -9.866}
{"structure": "CC(C)CC(=O)N1CC[C@H]2C[C@H](c3nccs3)O[C@@H]2C1", "LdMetRS": 19.88}